Assay results as given in the supplement of paper PMC11546906.
Structures can show the parent of a compound that is named as a salt. The list shows a part of the results. Single values are uncertain here, since repeats match poorly.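 FDA-approved drugs were each paired with colistin at one-eighth its MIC and screened against a multidrug-resistant, mcr-1-positive clinical E. coli isolate, with OD600 read after 24 h. Drug-free bacteria served as growth control, plain broth as blank. Combinations were active if OD600 dropped below 0.2.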

System: Escherichia coli 42 (mcr-1-positive clinical isolate)
Test: OD600 after 24 h growth with compound plus colistin (absorbance units (OD600)); higher = more bacterial growth (less inhibition)
Settings: first compound 25 µM; colistin concentration 0.5 ug/mL; incubation time 24 h; 37 °C

OD600, inactive:
C[C@H](Nc1ncnc2nc[nH]c12)c1cc2cccc(Cl)c2c(=O)n1-c1ccccc1 [Duvelisib] + CCC(C)CCCC(=O)N[C@@H](CCN)C(=O)N[C@H](C(=O)N[C@@H](CCN)C(=O)N[C@H]1CCNC(=O)[C@H]([C@@H](C)O)NC(=O)[C@H](CCN)NC(=O)[C@H](CCN)NC(=O)[C@H](CC(C)C)NC(=O)[C@@H](CC(C)C)NC(=O)[C@H](CCN)NC1=O)[C@@H](C)O [colistin] 0.994, COCCCN1CCC(NC(=O)c2cc(Cl)c(N)c3c2OCC3)CC1 [Prucalopride] + CCC(C)CCCC(=O)N[C@@H](CCN)C(=O)N[C@H](C(=O)N[C@@H](CCN)C(=O)N[C@H]1CCNC(=O)[C@H]([C@@H](C)O)NC(=O)[C@H](CCN)NC(=O)[C@H](CCN)NC(=O)[C@H](CC(C)C)NC(=O)[C@@H](CC(C)C)NC(=O)[C@H](CCN)NC1=O)[C@@H](C)O [colistin] 1.04, CCOc1ccccc1OCCN[C@H](C)Cc1ccc(OC)c(S(N)(=O)=O)c1 [Tamsulosin hydrochloride] + CCC(C)CCCC(=O)N[C@@H](CCN)C(=O)N[C@H](C(=O)N[C@@H](CCN)C(=O)N[C@H]1CCNC(=O)[C@H]([C@@H](C)O)NC(=O)[C@H](CCN)NC(=O)[C@H](CCN)NC(=O)[C@H](CC(C)C)NC(=O)[C@@H](CC(C)C)NC(=O)[C@H](CCN)NC1=O)[C@@H](C)O [colistin] 1.09, CNC1(C)C2CCC(C2)C1(C)C (centres undefined) [Mecamylamine hydrochloride] + CCC(C)CCCC(=O)N[C@@H](CCN)C(=O)N[C@H](C(=O)N[C@@H](CCN)C(=O)N[C@H]1CCNC(=O)[C@H]([C@@H](C)O)NC(=O)[C@H](CCN)NC(=O)[C@H](CCN)NC(=O)[C@H](CC(C)C)NC(=O)[C@@H](CC(C)C)NC(=O)[C@H](CCN)NC1=O)[C@@H](C)O [colistin] 0.959, Oc1ccc(OCc2ccccc2)cc1 [Monobenzone] + CCC(C)CCCC(=O)N[C@@H](CCN)C(=O)N[C@H](C(=O)N[C@@H](CCN)C(=O)N[C@H]1CCNC(=O)[C@H]([C@@H](C)O)NC(=O)[C@H](CCN)NC(=O)[C@H](CCN)NC(=O)[C@H](CC(C)C)NC(=O)[C@@H](CC(C)C)NC(=O)[C@H](CCN)NC1=O)[C@@H](C)O [colistin] 1, COc1cc2c(cc1OC)CC(=O)N(CCCN(C)C[C@H]1Cc3cc(OC)c(OC)cc31)CC2 [Ivabradine hydrochloride] + CCC(C)CCCC(=O)N[C@@H](CCN)C(=O)N[C@H](C(=O)N[C@@H](CCN)C(=O)N[C@H]1CCNC(=O)[C@H]([C@@H](C)O)NC(=O)[C@H](CCN)NC(=O)[C@H](CCN)NC(=O)[C@H](CC(C)C)NC(=O)[C@@H](CC(C)C)NC(=O)[C@H](CCN)NC1=O)[C@@H](C)O [colistin] 0.957, O=C1O[C@H]([C@@H](O)CO)C(O)=C1O [L-Ascorbic acid] + CCC(C)CCCC(=O)N[C@@H](CCN)C(=O)N[C@H](C(=O)N[C@@H](CCN)C(=O)N[C@H]1CCNC(=O)[C@H]([C@@H](C)O)NC(=O)[C@H](CCN)NC(=O)[C@H](CCN)NC(=O)[C@H](CC(C)C)NC(=O)[C@@H](CC(C)C)NC(=O)[C@H](CCN)NC1=O)[C@@H](C)O [colistin] 0.653, CN(C)CCCN1c2ccccc2Sc2ccccc21 [Promazine hydrochloride] + CCC(C)CCCC(=O)N[C@@H](CCN)C(=O)N[C@H](C(=O)N[C@@H](CCN)C(=O)N[C@H]1CCNC(=O)[C@H]([C@@H](C)O)NC(=O)[C@H](CCN)NC(=O)[C@H](CCN)NC(=O)[C@H](CC(C)C)NC(=O)[C@@H](CC(C)C)NC(=O)[C@H](CCN)NC1=O)[C@@H](C)O [colistin] 1.29, C[N+](C)(C)CCO.[Cl-] [Choline chloride] + CCC(C)CCCC(=O)N[C@@H](CCN)C(=O)N[C@H](C(=O)N[C@@H](CCN)C(=O)N[C@H]1CCNC(=O)[C@H]([C@@H](C)O)NC(=O)[C@H](CCN)NC(=O)[C@H](CCN)NC(=O)[C@H](CC(C)C)NC(=O)[C@@H](CC(C)C)NC(=O)[C@H](CCN)NC1=O)[C@@H](C)O [colistin] 0.983
